# From PubChem BioAssay AID1487 (National Center for Advancing Translational Sciences (NCATS), 2009)
# The other results are listed elsewhere or left out. These are further read-outs of the screen, such as a control signal, another cell line or another target. No call is given for them. Most of these compounds were active or inconclusive in the main read-out, so they are no random draw. Potencies come from curve fits of mixed quality, noted in brackets.
# Assay: qHTS Assay for Modulators of Lamin A Splicing
# Conditions: HeLa LMNA splicing GFP/RFP minigene ratio, 48 h
# Method in brief: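 S3 HeLa stable clones carrying a lamin A-EGFP splicing minigene plus DsRed2 were seeded at 600 cells/well in Opti-MEM with 2% FBS, pin-dosed and incubated 48 h at 37°C. Acumen cytometry (488 nm) gave the GFP/RFP total-intensity ratio.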
# [1] = measured here: GFP splicing reporter channel
# [2] = measured here: RFP viability control channel
SMILES,AC50 [1],AC50 [2]
COc1ccc(N=C(NN)c2ccc3ccccc3n2)cc1,"35.5 µM [rising, single point]",
CCc1ccc(NSc2ccccc2[N+](=O)[O-])cc1,,"15.8 µM [rising, partial curve]"
O=C(Nc1nc2ccccc2n1CCOc1ccccc1)c1ccco1,,"35.5 µM [rising, single point]"
C/C(=N\NC(=O)Cc1ccc(Cl)cc1)c1ccccn1,"3.16 µM [falling, single point]","17.8 µM [falling, partial curve]"
CC(C)=CCN1CCN(Cc2ccc(C)s2)CC1CCO (stereo not drawn),"6.31 µM [rising, single point]",
CCC(C(=O)NNC(=O)c1cnccn1)c1ccccc1 (stereo not drawn),,"22.4 µM [rising, single point]"
C=CCSc1nnc(NC(=O)CSc2nc(CCC)cc(=O)[nH]2)s1,,"12.6 µM [rising, partial curve, poor fit]"
Cc1cc(C)cc(NC(=O)CSc2nnc(-c3ccccc3Br)o2)c1,"15.8 µM [falling, single point]",
Cc1nnc(-c2ccc(Oc3ccc(C)c(C)c3)c([N+](=O)[O-])c2)o1,"31.6 µM [rising, single point]","31.6 µM [rising, single point]"
Cc1cc(NC(=O)CSc2nnc(C(C)N(C)C)n2Cc2ccccc2)no1 (stereo not drawn),,"0.00447 µM [falling, full curve, poor fit]"
Cc1ccc(NC(=O)c2cc(S(=O)(=O)c3ccccc3)ccc2Cl)cc1,"31.6 µM [rising, single point]","35.5 µM [rising, single point]"
O=C(Nc1ccc(S(=O)(=O)NCc2ccco2)cc1)c1ccncc1,,"15.8 µM [rising, single point]"
O=C(Nc1ccc(NC(=O)C2CC2)cn1)c1ccccc1Cl,,"14.1 µM [rising, single point]"
Cc1ccc(NC(=O)CSc2nnnn2C)cc1S(=O)(=O)N(C)C,,"7.08 µM [rising, partial curve, poor fit]"
CCOC(=O)c1ccc(-n2ccnc2)c(NC(=O)c2ccc(C(C)(C)C)cc2)c1,,"1.58 µM [rising, partial curve]"
Cn1cccc1C1NC(=O)c2c(sc3c2CCC(C(C)(C)C)C3)N1 (stereo not drawn),,"31.6 µM [rising, single point]"
CC(C)[C@H](NC(=O)c1ccc(C(C)(C)C)cc1)C(=O)Nc1nnc(C2CC2)s1,"12.6 µM [rising, single point]","22.4 µM [rising, single point]"
CC1CC(C)(C)N(C(=O)CSc2ccc(-c3ccc(F)cc3)nn2)c2ccccc21 (stereo not drawn),"22.4 µM [falling, single point]","35.5 µM [falling, single point]"
Clc1ccc(CSc2nnc(CNc3cccc(Cl)c3)o2)cc1,,"35.5 µM [rising, single point]"
CC(Sc1nnnn1C1CCCCC1)C(=O)O (stereo not drawn),"14.1 µM [falling, single point]",
COc1ccccc1NS(=O)(=O)c1cc(NC(=O)c2sc3cc(Cl)ccc3c2Cl)ccc1C,"28.2 µM [falling, single point]","12.6 µM [falling, partial curve, poor fit]"
CCCCCCCC[n+]1cccc(C(=O)N(CC)CC)c1,"11.2 µM [rising, partial curve]","0.794 µM [rising, partial curve]"
CC(=O)N1CCN(c2ccc(Nc3nc(C)nc4c3oc3ccccc34)cc2)CC1,"10 µM [rising, partial curve]","11.2 µM [rising, partial curve]"
CCN1CCN(C(=O)CSc2cc(=O)n(CC)c3ccccc23)CC1,,"12.6 µM [rising, single point]"
Cc1cc(NC(=S)N(CCCN2CCN(C)CC2)Cc2ccco2)ccc1Cl,"0.00355 µM [falling, full curve, poor fit]",
O=C(CN1CCOCC1)Nc1nc(-c2ccc3c(c2)CCN3S(=O)(=O)c2ccccc2)cs1,,"15.8 µM [rising, single point]"
Cc1ccc(S(=O)(=O)N2CCCCC2)cc1NC(=O)c1ccc2ccccc2n1,"3.16 µM [rising, full curve, poor fit]","3.55 µM [rising, full curve, poor fit]"
S=C(Nc1ccccc1)Nc1nc2ccccc2n1CCOc1ccc(Br)cc1,"35.5 µM [falling, single point]","35.5 µM [falling, single point]"

# 13 consecutive compounds already listed:
SMILES,AC50 [1],AC50 [2]
Cn1cccc1C1NC(=O)c2c(sc3c2CCC(C(C)(C)C)C3)N1 (stereo not drawn),,"31.6 µM [rising, single point]"
CC(C)[C@H](NC(=O)c1ccc(C(C)(C)C)cc1)C(=O)Nc1nnc(C2CC2)s1,"12.6 µM [rising, single point]","22.4 µM [rising, single point]"
CC1CC(C)(C)N(C(=O)CSc2ccc(-c3ccc(F)cc3)nn2)c2ccccc21 (stereo not drawn),"22.4 µM [falling, single point]","35.5 µM [falling, single point]"
Clc1ccc(CSc2nnc(CNc3cccc(Cl)c3)o2)cc1,,"35.5 µM [rising, single point]"
CC(Sc1nnnn1C1CCCCC1)C(=O)O (stereo not drawn),"14.1 µM [falling, single point]",
COc1ccccc1NS(=O)(=O)c1cc(NC(=O)c2sc3cc(Cl)ccc3c2Cl)ccc1C,"28.2 µM [falling, single point]","12.6 µM [falling, partial curve, poor fit]"
CCCCCCCC[n+]1cccc(C(=O)N(CC)CC)c1,"11.2 µM [rising, partial curve]","0.794 µM [rising, partial curve]"
CC(=O)N1CCN(c2ccc(Nc3nc(C)nc4c3oc3ccccc34)cc2)CC1,"10 µM [rising, partial curve]","11.2 µM [rising, partial curve]"
CCN1CCN(C(=O)CSc2cc(=O)n(CC)c3ccccc23)CC1,,"12.6 µM [rising, single point]"
Cc1cc(NC(=S)N(CCCN2CCN(C)CC2)Cc2ccco2)ccc1Cl,"0.00355 µM [falling, full curve, poor fit]",
O=C(CN1CCOCC1)Nc1nc(-c2ccc3c(c2)CCN3S(=O)(=O)c2ccccc2)cs1,,"15.8 µM [rising, single point]"
Cc1ccc(S(=O)(=O)N2CCCCC2)cc1NC(=O)c1ccc2ccccc2n1,"3.16 µM [rising, full curve, poor fit]","3.55 µM [rising, full curve, poor fit]"
S=C(Nc1ccccc1)Nc1nc2ccccc2n1CCOc1ccc(Br)cc1,"35.5 µM [falling, single point]","35.5 µM [falling, single point]"

# More compounds.

SMILES,AC50 [1],AC50 [2]
O=c1[nH]c(CN2CCN(c3ccccc3)CC2)nc2scc(-c3ccccc3)c12,,"12.6 µM [rising, partial curve]"
CN(C)/C=C/C(=O)/C=C/c1cn(-c2ncc(C(F)(F)F)cc2Cl)c2ccccc12,,"35.5 µM [rising, single point]"
CCCCN(CCCC)S(=O)(=O)c1ccc(NC(=O)Cc2cccs2)cc1,,"35.5 µM [rising, single point]"
COc1ccccc1N1CCN(CCN2C(=O)CC3(CCCC3)CC2=O)CC1,,"6.31 µM [falling, single point]"
C[C@H]1[C@@H](O)[C@@H](C)\C=C/C=C\C=C/C=C\C=C/C=C\C=C/[C@@H](O[C@H]2O[C@@H](C)[C@@H](O)[C@@H](N)[C@@H]2O)C[C@@H]2O[C@](O)(C[C@@H](O)C[C@@H](O)[C@@H](O)CC[C@@H](O)C[C@@H](O)CC(=O)O[C@H]1C)C[C@@H](O)[C@H]2C(=O)O (stereo in doubt),"0.000891 µM [falling, full curve]",
c1ccc(CCN2CCN(c3ncnc4c3cnn4-c3ccccc3)CC2)cc1,,"35.5 µM [rising, single point]"
Nc1ccc(C(=O)OCC(=O)N2c3ccccc3Sc3ccccc32)cc1[N+](=O)[O-],,"14.1 µM [rising, single point]"
COC(=O)c1ccccc1NC(=O)CNc1cc(OC)c(OC)cc1C,,"2.24 µM [rising, full curve]"
COc1ccc(-c2cn3cc(C)ccc3n2)cc1F,,"12.6 µM [falling, partial curve, poor fit]"
O=C(CN1CCN(S(=O)(=O)c2ccc(Cl)cc2)CC1)NC(=O)NC1CCCCC1,"12.6 µM [rising, single point]","20 µM [rising, single point]"
Cc1sc2ncnc(NCCc3ccc(S(N)(=O)=O)cc3)c2c1C,,"2.24 µM [rising, full curve]"
COc1cccc(/C=C/C(=O)OCC(=O)Nc2ccc(S(=O)(=O)N3CCCC3)cc2)c1,,"0.0501 µM [falling, full curve, poor fit]"
CCCNC(=O)c1cc2n(n1)CCCN(Cc1ccc(C)cc1)C2=O,"0.0501 µM [falling, full curve, poor fit]",
COc1ccc(C(=O)/C=C/c2cccs2)c(OC(=O)c2cccc([N+](=O)[O-])c2)c1,"35.5 µM [falling, single point]",
Cc1cc(-c2nnc(-c3cc4ccccc4oc3=O)o2)c(C)n1-c1ccccc1,"3.16 µM [rising, single point]","4.47 µM [rising, single point]"
CN1CCN(c2ncc3nc(-c4cccc(C#N)c4)c(=O)n(CCc4ccccc4)c3n2)CC1,"12.6 µM [falling, partial curve]","22.4 µM [falling, single point]"
Cc1nc(CC(C)C)cc(C(=O)N2CCCC(CNS(=O)(=O)c3cccs3)C2)n1 (stereo not drawn),"0.0316 µM [rising, full curve, poor fit]",
CCn1c(=O)cc(SCC(=O)Nc2ccc(OC)c(OC)c2)c2ccccc21,,"12.6 µM [rising, partial curve]"
COc1ccc2ccccc2c1C(O)c1nccn1C (stereo not drawn),"11.2 µM [rising, partial curve]",
Cc1ccc(CONC(=O)c2ccc(OC(F)F)cc2)cc1,"5.62 µM [falling, partial curve]","4.47 µM [falling, partial curve]"
O=C(NCc1nnc2c3ccccc3c(-c3ccccc3)nn12)c1ccccc1Cl,"12.6 µM [rising, partial curve, poor fit]","22.4 µM [rising, partial curve, poor fit]"
Cn1nc(C(F)(F)F)c(C#N)c1N1CCN(c2ccc(F)cc2)CC1,,"11.2 µM [rising, single point]"
CN(C)CCCn1c(-c2ccc(Cl)cc2)csc1=Nc1ccccc1,"22.4 µM [falling, single point]",
CCOc1cccc(CN2CCCC(C(=O)c3cccc(C(F)(F)F)c3)C2)c1O (stereo not drawn),,"2.82 µM [rising, single point]"
Cc1cccc(CNc2ncnc3ccc(-c4c(C)noc4C)cc23)c1,"0.708 µM [falling, full curve]","6.31 µM [rising, full curve]"
CCC(C)(C)n1nnnc1CN1CCN(C(c2ccccc2)c2ccccc2)CC1,"15.8 µM [rising, single point]","15.8 µM [rising, single point]"
Cc1ccc(C(=O)CSc2nnc(COc3cccc4cccnc34)o2)cc1,"14.1 µM [rising, partial curve]","15.8 µM [rising, single point]"
